Assay results: publication PMC3137634
These are yes or no findings as the source states them, for the method shown.

Chains of the proteins cited; added tags and fusions are not shown. Lines headed by an entry give the natural chain unless they say otherwise; changes in a name come on top. Residues count along the entry.
UniProt O60603: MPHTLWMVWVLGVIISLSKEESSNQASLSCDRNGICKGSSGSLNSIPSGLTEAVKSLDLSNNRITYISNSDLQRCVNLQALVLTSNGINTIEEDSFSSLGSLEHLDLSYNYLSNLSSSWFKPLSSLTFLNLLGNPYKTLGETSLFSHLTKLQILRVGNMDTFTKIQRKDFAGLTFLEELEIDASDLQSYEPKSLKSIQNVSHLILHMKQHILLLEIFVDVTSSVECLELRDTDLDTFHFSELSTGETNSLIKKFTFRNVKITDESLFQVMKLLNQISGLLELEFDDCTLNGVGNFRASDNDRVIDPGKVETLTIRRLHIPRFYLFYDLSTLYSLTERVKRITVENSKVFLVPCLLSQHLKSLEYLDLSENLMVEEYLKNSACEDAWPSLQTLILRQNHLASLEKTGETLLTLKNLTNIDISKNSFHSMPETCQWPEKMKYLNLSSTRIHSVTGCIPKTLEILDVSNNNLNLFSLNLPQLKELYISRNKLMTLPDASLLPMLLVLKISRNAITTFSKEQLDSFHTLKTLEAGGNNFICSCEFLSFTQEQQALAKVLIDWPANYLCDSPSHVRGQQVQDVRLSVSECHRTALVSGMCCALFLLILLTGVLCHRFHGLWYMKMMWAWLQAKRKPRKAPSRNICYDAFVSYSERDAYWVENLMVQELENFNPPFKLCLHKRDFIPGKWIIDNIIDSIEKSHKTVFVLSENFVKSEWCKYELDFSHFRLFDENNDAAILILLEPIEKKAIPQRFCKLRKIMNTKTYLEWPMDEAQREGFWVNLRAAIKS
UniProt O00206, residues 24-839: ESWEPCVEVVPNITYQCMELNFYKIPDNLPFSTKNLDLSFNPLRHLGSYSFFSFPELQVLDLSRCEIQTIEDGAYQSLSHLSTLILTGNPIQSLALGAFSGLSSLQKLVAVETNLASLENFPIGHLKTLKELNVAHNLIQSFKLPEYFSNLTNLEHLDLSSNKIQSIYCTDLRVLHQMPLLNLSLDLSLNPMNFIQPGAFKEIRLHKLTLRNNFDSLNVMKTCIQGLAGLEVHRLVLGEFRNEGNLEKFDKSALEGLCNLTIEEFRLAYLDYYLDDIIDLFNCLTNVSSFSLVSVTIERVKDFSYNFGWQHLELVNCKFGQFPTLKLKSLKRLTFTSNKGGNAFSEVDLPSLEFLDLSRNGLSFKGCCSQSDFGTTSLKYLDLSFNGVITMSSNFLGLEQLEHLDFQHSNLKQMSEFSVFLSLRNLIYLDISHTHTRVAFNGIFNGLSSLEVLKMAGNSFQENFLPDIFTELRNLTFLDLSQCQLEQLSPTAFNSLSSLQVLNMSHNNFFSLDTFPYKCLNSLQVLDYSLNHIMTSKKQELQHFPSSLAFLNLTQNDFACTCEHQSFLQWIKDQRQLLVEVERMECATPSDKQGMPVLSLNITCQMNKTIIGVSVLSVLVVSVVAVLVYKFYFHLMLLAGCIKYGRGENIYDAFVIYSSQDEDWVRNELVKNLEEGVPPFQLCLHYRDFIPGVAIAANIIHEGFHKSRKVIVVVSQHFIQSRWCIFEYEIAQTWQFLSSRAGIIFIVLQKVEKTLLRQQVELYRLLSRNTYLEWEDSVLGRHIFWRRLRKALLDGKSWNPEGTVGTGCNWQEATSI
UniProt O25636: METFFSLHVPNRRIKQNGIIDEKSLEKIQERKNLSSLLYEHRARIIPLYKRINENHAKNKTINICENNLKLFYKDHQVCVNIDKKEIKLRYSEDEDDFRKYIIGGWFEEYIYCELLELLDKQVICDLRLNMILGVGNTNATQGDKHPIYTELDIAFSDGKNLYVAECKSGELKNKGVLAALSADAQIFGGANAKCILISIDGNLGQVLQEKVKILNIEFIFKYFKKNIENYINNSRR

What was measured:
[1] = target: TLR2 (human (endogenous in Thp1)) (UniProt O60603); experiment: flow cytometry on cells; Thp1 differentiated macrophages treated with rHP986 and stained with antibodies specific to TLR4, TLR2 and TNFR1; what is shown is the receptors' expression; only the binder purified
[2] = target: TLR4 (human (endogenous in Thp1)) (UniProt O00206); experiment: as above

recombinant HP986 (from UniProt O25636)
binding [1]: no binding
binding [2]: no binding
